Patent US20040235012A1, “Method of detecting antibiotic resistance in microorganisms” (priority 2003, published 2004)

Tested on: MRSA and borderline S. aureus strains
Assay: Screening of MRSA and borderline S. aureus strains on chromogenic agar supplemented with a β-lactam
Assay type: cell-based, Staphylococcus aureus
Details: for Sensitivity: 35-37 °C, 24 hours
[1] = oxacillin at 4 ug/ml in chromogenic agar, 22 strains

Row | SMILES | Accuracy [1] [percentage] | Negative Predictive Value [1] [percentage] | Positive Predictive Value [1] [percentage] | Specificity [1] [percentage] | Sensitivity [1] [percentage] | Sensitivity (ceftazidime at 16 ug/ml in chromogenic agar, 21 strains) [percentage]
1 | Cc1onc(-c2ccccc2)c1C(=O)N[C@@H]1C(=O)N2[C@@H]1SC(C)(C)[C@@H]2C(=O)O [OX, oxacillin] | 27.3 | 23.8 | 100 | 100 | 5.9 | –
2 | CC(C)(O/N=C(\C(=O)N[C@@H]1C(=O)N2C(C(=O)[O-])=C(C[n+]3ccccc3)CS[C@H]12)c1csc(N)n1)C(=O)O [CAZ, ceftazidime] | – | – | – | – | – | 33.3
